Reference: paper PMC10352258
Read-outs that look alike come from different tables or passages of the source. No constants are given. Whether binding was seen depends on the method and setting. For some of these results: Binding seen in cells or lysates may run through a third protein. Some results given as binding are weak or reduced against the parent protein; the word gives no strength. For some of these results: Where a sequence is shown, tags or fusion partners need not be part of it. Each block holds one molecule with its values, some of them ahead of it.

The chains behind the UniProt entries cited, without tags or fusion partners.
UniProt O00560: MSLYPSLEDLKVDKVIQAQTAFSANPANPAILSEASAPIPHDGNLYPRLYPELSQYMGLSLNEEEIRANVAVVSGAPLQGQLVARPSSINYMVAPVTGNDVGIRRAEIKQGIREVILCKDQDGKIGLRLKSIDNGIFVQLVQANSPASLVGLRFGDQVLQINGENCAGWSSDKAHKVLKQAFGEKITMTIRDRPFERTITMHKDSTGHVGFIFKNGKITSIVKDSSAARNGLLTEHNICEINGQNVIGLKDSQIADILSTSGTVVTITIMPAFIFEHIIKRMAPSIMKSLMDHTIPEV
UniProt P10275: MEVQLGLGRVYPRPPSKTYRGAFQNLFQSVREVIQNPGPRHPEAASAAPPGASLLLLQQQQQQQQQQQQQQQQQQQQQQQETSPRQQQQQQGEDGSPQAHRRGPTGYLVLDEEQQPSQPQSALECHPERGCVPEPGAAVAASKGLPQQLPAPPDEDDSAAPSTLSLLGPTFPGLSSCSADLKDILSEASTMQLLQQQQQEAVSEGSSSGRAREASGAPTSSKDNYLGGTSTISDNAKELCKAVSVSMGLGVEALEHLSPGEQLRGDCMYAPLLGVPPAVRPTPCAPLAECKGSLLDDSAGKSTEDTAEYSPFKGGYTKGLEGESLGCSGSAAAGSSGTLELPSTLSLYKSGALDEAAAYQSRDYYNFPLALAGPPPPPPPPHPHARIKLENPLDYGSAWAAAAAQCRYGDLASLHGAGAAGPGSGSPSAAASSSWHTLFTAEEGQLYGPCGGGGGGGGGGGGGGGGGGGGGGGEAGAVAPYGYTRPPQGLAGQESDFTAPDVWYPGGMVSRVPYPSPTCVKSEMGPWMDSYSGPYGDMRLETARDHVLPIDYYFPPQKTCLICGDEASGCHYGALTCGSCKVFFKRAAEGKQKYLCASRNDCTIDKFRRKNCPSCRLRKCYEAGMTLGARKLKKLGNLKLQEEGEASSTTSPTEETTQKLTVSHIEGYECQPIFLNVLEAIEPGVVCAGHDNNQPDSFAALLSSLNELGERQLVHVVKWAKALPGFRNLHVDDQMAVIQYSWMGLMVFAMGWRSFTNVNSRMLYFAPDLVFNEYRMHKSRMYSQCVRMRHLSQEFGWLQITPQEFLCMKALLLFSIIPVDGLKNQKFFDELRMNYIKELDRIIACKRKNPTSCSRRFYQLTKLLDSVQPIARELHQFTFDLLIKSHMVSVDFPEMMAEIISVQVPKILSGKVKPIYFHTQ
UniProt O15379: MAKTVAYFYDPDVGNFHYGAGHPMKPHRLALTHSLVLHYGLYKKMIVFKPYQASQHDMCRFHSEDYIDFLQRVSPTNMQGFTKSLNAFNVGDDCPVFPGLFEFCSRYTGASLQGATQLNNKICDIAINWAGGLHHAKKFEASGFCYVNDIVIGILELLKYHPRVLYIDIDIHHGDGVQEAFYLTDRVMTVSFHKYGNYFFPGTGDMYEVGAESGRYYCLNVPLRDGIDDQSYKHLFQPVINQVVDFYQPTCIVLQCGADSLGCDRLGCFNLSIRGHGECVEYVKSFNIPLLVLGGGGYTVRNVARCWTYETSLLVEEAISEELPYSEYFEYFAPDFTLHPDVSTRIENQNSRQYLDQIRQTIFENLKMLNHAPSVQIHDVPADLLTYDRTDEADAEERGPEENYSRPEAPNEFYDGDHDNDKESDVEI

Legend:
[1] = biological target: HSP90-K754R mutant, pcDNA3.1-Flag plasmid (UniProt P07900); assay: co-IP; HSP90-WT or HSP90-K754R with client proteins and cochaperones (Fig. 2f, g); cell lysates, primary antibody overnight at 4 °C, protein A/G Sepharose beads, western blot
[2] = biological target: wild-type HSP90 (HSP90-WT), pcDNA3.1-Flag plasmid (UniProt P07900); assay: as above
[3] = biological target: HSP90 (construct not stated) (UniProt P07900); assay: co-IP; immunoprecipitation to detect associations between HSP90 and a panel of HDAC 1–11, SIRT 1–7 and a series of HATs (Supplementary Fig. S3a, S3d); constructs not stated
[4] = biological target: Flag-tagged SDCBP (wild type) (UniProt O00560); assay: co-IP; ESCC cells cotransfected with Flag-tagged SDCBP (wild type or truncation mutants) and Myc-tagged HSP90 (wild type or mutants)
[5] = biological target: exogenous HSP90 (HSP90 overexpression) (UniProt P07900); assay: co-IP; exogenous HSP90 and SDCBP (Supplementary Fig. S4d); constructs not stated
[6] = biological target: HSP90 (construct not stated) (UniProt P07900); assay: co-IP; HSP90, SDCBP and HDAC11 together; HDAC11-bound and SDCBP-bound HSP90 compared in the presence of SDCBP (Fig. 4k)
[7] = biological target: SDCBP (construct not stated) (UniProt O00560); assay: co-IP; exogenous HSP90 and SDCBP (Supplementary Fig. S4d); constructs not stated
[8] = biological target: syndecan binding protein (SDCBP), endogenous (human (endogenous in ESCC cells)) (UniProt O00560); assay: co-IP; endogenous proteins in ESCC cell lysates, primary antibody overnight at 4 °C, protein A/G Sepharose beads, western blot; SDCBP-HSP90 and HDAC11-HSP90 also after treatment of the cells with V020-9974 (Fig. 6h, i)
[9] = biological target: heat shock protein 90 (HSP90 AA1), endogenous (human (endogenous in ESCC cells)) (UniProt P07900); assay: as above
[10] = biological target: Myc-tagged HSP90 (wild type) (UniProt P07900); assay: co-IP; binding of HDAC11 to wild-type or mutant HSP90 (Fig. 4j)
[11] = biological target: HSP90-GST recombinant protein (UniProt P07900); assay: pull-down; GST or HSP90-GST immobilised on Glutathione-Sepharose beads (2 h, 4 °C), His-tagged proteins added, overnight at 4 °C, western blot; both purified
[12] = biological target: heat shock protein 90 (HSP90 AA1), endogenous (human (endogenous in ESCC cells)) (UniProt P07900); assay: co-IP; endogenous proteins in ESCC cell lysates, primary antibody overnight at 4 °C, protein A/G Sepharose beads, western blot; SDCBP-HSP90 and HDAC11-HSP90 also after treatment of the cells with V020-9974 (Fig. 6h, i); remark: listed apart in the source

Molecule: Androgen Receptor (from UniProt P10275 1-920)
binding [1]: binds
binding [2]: binds

Molecule: SDCBP (construct not stated) (from UniProt O00560 1-298)
binding [5]: binds
binding [6]: binds

B2: HDAC11-His recombinant protein (enzyme, UniProt Q96DB2 1-347)
chain: MLHTTQLYQHVPETRWPIVYSPRYNITFMGLEKLHPFDAGKWGKVINFLKEEKLLSDSMLVEAREASEEDLLVVHTRRYLNELKWSFAVATITEIPPVIFLPNFLVQRKVLRPLRTQTGGTIMAGKLAVERGWAINVGGGFHHCSSDRGGGFCAYADITLAIKFLFERVEGISRATIIDLDAHQGNGHERDFMDDKRVYIMDVYNRHIYPGDRFAKQAIRRKVELEWGTEDDEYLDKVERNIKKSLQEHLPDVVVYNAGTDILEGDRLGGLSISPAGIVKRDELVFRMVRGRRVPILMVTSGGYQKRTARIIADSILNLFGLGLIGPESPSVSAQNSDTPLLPPAVP
binding [11]: binds

B3: histone deacetylase 11 (HDAC11), endogenous (enzyme, UniProt Q96DB2 1-347)
chain: MLHTTQLYQHVPETRWPIVYSPRYNITFMGLEKLHPFDAGKWGKVINFLKEEKLLSDSMLVEAREASEEDLLVVHTRRYLNELKWSFAVATITEIPPVIFLPNFLVQRKVLRPLRTQTGGTIMAGKLAVERGWAINVGGGFHHCSSDRGGGFCAYADITLAIKFLFERVEGISRATIIDLDAHQGNGHERDFMDDKRVYIMDVYNRHIYPGDRFAKQAIRRKVELEWGTEDDEYLDKVERNIKKSLQEHLPDVVVYNAGTDILEGDRLGGLSISPAGIVKRDELVFRMVRGRRVPILMVTSGGYQKRTARIIADSILNLFGLGLIGPESPSVSAQNSDTPLLPPAVP
binding [12]: binds

B4: SIRT4 (enzyme, UniProt Q9Y6E7 29-314)
chain: IGLFVPASPPLDPEKVKELQRFITLSKRLLVMTGAGISTESGIPDYRSEKVGLYARTDRRPIQHGDFVRSAPIRQRYWARNFVGWPQFSSHQPNPAHWALSTWEKLGKLYWLVTQNVDALHTKAGSRRLTELHGCMDRVLCLDCGEQTPRGVLQERFQVLNPTWSAEAHGLAPDGDVFLSEEQVRSFQVPTCVQCGGHLKPDVVFFGDTVNPDKVDFVHKRVKEADSLLVVGSSLQVYSGYRFILTAWEKKLPIAILNIGPTRSDDLACLKLNSRCGELLPLIDPC
binding [3]: binds

Now from value to molecule:

binding [3]: binds
Molecule: HDAC1 (from UniProt Q13547 1-482) (enzyme)

binding [3]: binds
Molecule: HDAC3 (from UniProt O15379 1-428) (enzyme)

binding [4]: binds
Molecule: Myc-tagged HSP90 (wild type) (from UniProt P07900-2 1-854)

binding [7]: binds
Molecule: exogenous HSP90 (HSP90 overexpression) (from UniProt P07900-2 1-854)

binding [8]: binds
Molecule: heat shock protein 90 (HSP90 AA1), endogenous (from UniProt P07900-2 1-854)

binding [9]: binds
Molecule: syndecan binding protein (SDCBP), endogenous (from UniProt O00560 1-298)

binding [10]: binds
binding [3]: binds
binding [6]: binds
B1: HDAC11 (construct not stated) (enzyme, UniProt Q96DB2 1-347)
chain: MLHTTQLYQHVPETRWPIVYSPRYNITFMGLEKLHPFDAGKWGKVINFLKEEKLLSDSMLVEAREASEEDLLVVHTRRYLNELKWSFAVATITEIPPVIFLPNFLVQRKVLRPLRTQTGGTIMAGKLAVERGWAINVGGGFHHCSSDRGGGFCAYADITLAIKFLFERVEGISRATIIDLDAHQGNGHERDFMDDKRVYIMDVYNRHIYPGDRFAKQAIRRKVELEWGTEDDEYLDKVERNIKKSLQEHLPDVVVYNAGTDILEGDRLGGLSISPAGIVKRDELVFRMVRGRRVPILMVTSGGYQKRTARIIADSILNLFGLGLIGPESPSVSAQNSDTPLLPPAVP
